In PubChem BioAssay AID2685 (National Center for Advancing Translational Sciences (NCATS), 2010):
This is one part of the list. Shown are side measurements of this screen, not its main read-out; they come without a call. Compounds called inactive in the main read-out are mostly missing here. The note in brackets gives the kind of curve behind each potency; many fits are weak.

Assay: qHTS Assay for Lipid Storage Modulators in Drosophila S3 Cells;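 as to cell number change: cells counted by Cell Tracker Red CMTPX staining in the red channel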
Conditions: BODIPY lipid droplet fluorescence, 18-24 h; for cell number change: measured here: cell count max response, cells fed with added oleic acid
Summary of the method: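 Drosophila S3 cells loaded with oleic acid (400 uM, as added) and compounds at several concentrations; lipid droplets imaged by 488-nm laser-scanning cytometry, 500–530 nm intensity and object ratio to cell channel. Percent activity normalized to 20 uM Triacsin C.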

[1] = measured here: lipid fluorescence (Fed channel) AC50, cells fed with added oleic acid
[2] = measured here: cell number channel AC50, cells fed with added oleic acid

Compound	cell number change	AC50 [1]	AC50 [2]
Cc1c(CCC(=O)N[C@@H](C)C(=O)O)c(=O)oc2cc3occ(-c4ccccc4)c3cc12	26.4%	2060 nM [falling, partial curve]	
CCCNC(=O)CN1CCN(S(=O)(=O)c2ccc(Br)s2)CC1	-6.61%		
[N-]=[N+]=CC(=O)CNC(=O)[C@@H](Cc1ccccc1)N1C(=O)c2ccccc2C1=O	1.61%		
CSc1nc(N(C)NC(=O)c2ccccc2)c2ccccc2n1		259 nM [rising, full curve, poor fit]	
Cc1ccc(C(=O)CCNc2ccccc2)o1	3.76%	32600 nM [falling, single point]	
O=C(Nc1nc2cc3c(cc2s1)OCO3)C1=COCCO1	9.56%	5.8 nM [rising, full curve, poor fit]	
O=C(O)COc1ccc(-c2nnn(CC(=O)O)n2)cc1	0.504%	73.1 nM [falling, full curve, poor fit]	
COc1ccc(CCn2c(C)cc(C(=O)CN3C(=O)C(=O)N(C4CCCC4)C3=O)c2C)cc1OC		8200 nM [rising, partial curve]	7310 nM [rising, single point]
COc1ccc(C(=O)Nc2ccc(NC(=O)c3cccs3)cc2)cc1Cl	9.03%	366 nM [rising, full curve, poor fit]	
Cc1c(C(=O)O)sc(S(=O)(=O)N2CCN(C(=O)Cc3ccccc3Cl)CC2)c1C(=O)O	-6.48%		4.61 nM [falling, full curve, poor fit]
CCOc1cc(S(=O)(=O)N(CC)CC)ccc1Cl		116 nM [falling, full curve, poor fit]	
N#Cc1ccc(S(=O)(=O)N2CCN(C(=O)[C@@H]3CCCN3C(=O)c3cccs3)CC2)cc1	6.8%	2590 nM [falling, partial curve, poor fit]	
O=S(=O)(c1cc(Cl)sc1Cl)N1CCCC1	6.87%		411 nM [falling, single point]
CC(C)(C)NC(=O)C1CC(=O)OC12CCCCC2 (stereo not drawn)	-6.58%	1160 nM [falling, full curve, poor fit]	
CCN(CC)S(=O)(=O)c1ccc2c(c1)nc(SCC(=O)NC1CC1)n2-c1ccccc1OC		6510 nM [rising, single point]	
CN1CCN(C(=O)C(N)Cc2ccccc2)CC1 (stereo not drawn)	-5.74%	146 nM [falling, full curve, poor fit]	
COc1cccc(CN2CCN(Cc3nc(C(C)C)cs3)CC2CCO)c1 (stereo not drawn)	3.1%	5800 nM [falling, partial curve]	
CSc1nnnn1-c1c(C)cc(C)cc1C	24.6%	18400 nM [rising, single point]	461 nM [rising, full curve, poor fit]
Cc1ccc2c(c1)c1nnc(SCC(=O)Nc3cccc(Cl)c3C)nc1n2CC(=O)O	2.88%		
COc1ccc(S(=O)(=O)N2CCCCC2)cc1NC(=O)c1cncc(Br)c1	-26.7%	146 nM [falling, full curve]	
Cn1c2c(c(=O)n(C)c1=O)C1(C(=O)Nc3ccccc31)C(C#N)=C(N)O2 (stereo not drawn)	-24.4%		

Compound	cell number change	AC50 [1]	AC50 [2]
C=CCn1c(=S)[nH]c2sccc2c1=O			731 nM [rising, single point]
O=C(CSc1nc2c(c(=O)n1-c1ccc(F)cc1)SCC2)NCc1ccco1	4.98%	11600 nM [rising, partial curve, poor fit]	
Cc1cc2ncn(S(=O)(=O)N(C)C)c2cc1C	134%		29100 nM [rising, partial curve, poor fit]
CCOc1ccc(C(=O)Nc2ccncc2)cc1		29100 nM [falling, single point]	
Cc1ccnc(NS(=O)(=O)c2ccc(CC(C)C)cc2)c1	-34.8%	29100 nM [falling, single point]	3260 nM [falling, full curve]
O=C(Nc1ccc(Cl)cc1)c1ccc2c(c1)OCO2	3.87%	20600 nM [rising, single point]	
Cc1cccc(NC(=O)CN2CCc3cc4c(cc3C2C)OCCCO4)c1 (stereo not drawn)	-18.2%		
Cc1ncc(CN2CCC(C(=O)Nc3ccc(Oc4cccnc4)cc3)CC2)cn1	19.8%	29100 nM [rising, single point]	
CCN1CCc2c(OCC(=O)Nc3cccc(C)c3)cccc2C1=O	70.3%		20600 nM [rising, single point]
Cc1ccccc1N(CC(=O)NCc1ccc2c(c1)OCO2)C(=O)C1CSC(=O)C1 (stereo not drawn)	13.9%	6510 nM [rising, single point]	
COc1ccc2c(c1)c(C(=O)N/N=C/c1ccc(Cl)cc1)c(C)n2C	18.7%		
CCOC(=O)c1ccc(NC(=O)Cn2nnc(-c3ccccc3)n2)cc1	-16.8%	14600 nM [falling, partial curve]	
CC(=O)c1sc(NC(=O)c2cccc(N3C(=O)CCC3=O)c2)nc1-c1ccccc1	14%		
CCOc1ccccc1C(=O)NC1CCN(CC(=O)Nc2cc(OC)ccc2OC)CC1	-30.3%	7310 nM [falling, partial curve]	32600 nM [falling, single point]
CCC(C)[C@H](NC(=O)NCc1ccccc1Cl)C(=O)O (stereo partly drawn)		29100 nM [falling, partial curve]	
O=C(NCc1ccccc1)NC12CC3CC(CC(C3)C1)C2	-16.5%	146 nM [falling, full curve, poor fit]	
Nc1cc(=O)[nH]n1C1CCN(c2ccccc2)CC1	-3.66%		
COc1ccc2nc(NC(=O)CSc3nc4ccccc4o3)sc2c1	-38.4%	10300 nM [falling, partial curve]	651 nM [falling, full curve, poor fit]
Cc1cc(=O)[nH]c(SCC(=O)N2C(C)CCCC2C)n1 (stereo not drawn)		1160 nM [falling, full curve]	820 nM [rising, full curve, poor fit]
COc1ccc(CNC(=O)C(=O)NCCC2CCCCN2S(=O)(=O)c2ccccc2)cc1 (stereo not drawn)	-11.9%	18400 nM [falling, single point]	
O=C1CC(c2ccc(F)cc2)Sc2nc(-c3ccccc3)c(-c3ccccc3)n21 (stereo not drawn)	18.3%	10300 nM [rising, partial curve]	

Compound	cell number change	AC50 [1]	AC50 [2]
Cc1cc(C)nc(N2CCN(c3nc(C)cc(C)n3)CC2)n1	4.47%	10300 nM [rising, single point]	
CC(=O)Nc1ccc(S(=O)(=O)Nc2ccccc2C(=O)NCc2cccnc2)cc1	-5.88%	4.61 nM [falling, full curve, poor fit]	
CCC(=NC(C)c1ccccc1)c1c(O)n(C)c(=O)n(C)c1=O (stereo not drawn)	-67.4%	1300 nM [rising, full curve]	
O=C(CCNS(=O)(=O)c1cccc2nsnc12)NCCC1=CCCCC1	-17.8%		
CCC(=O)N1CCc2cc(S(=O)(=O)N3CCN(c4ccccc4)CC3)ccc21	-4.82%	3660 nM [rising, single point]	
COc1ccccc1CNC(=O)COC(=O)Cc1ccc(F)cc1	-14.8%		920 nM [falling, full curve, poor fit]
CCOC(=O)CCc1c(C)n(CC)c2cc(-c3ccccc3OC)nn2c1=O		3660 nM [rising, partial curve]	6510 nM [rising, single point]
COc1ccc(C(=O)Nc2ccccc2C(=O)Nc2cccc(C)n2)cc1	-0.501%	326 nM [rising, full curve, poor fit]	
O=C(O)CCc1nn2c3ccccc3nc2n(-c2ccccc2)c1=O	-20.8%		103 nM [falling, full curve, poor fit]
O=C1C(Cl)=C(N2CCOCC2)C(=O)N1c1cccc(Cl)c1	-12.8%		
CC1CN(C(=O)CCC(=O)NCc2ccccc2)c2ccccc2S1 (stereo not drawn)	-0.865%	4.61 nM [falling, full curve, poor fit]	
CC1(C)C(=O)C2(CCCC2)C(=O)OC1c1ccco1 (stereo not drawn)	8.2%	580 nM [falling, single point]	
c1ccc(CSc2nnc([C@@H]3CCCN3)o2)cc1	6.59%		
CN1C(=O)N(CC(=O)N2CCN(S(=O)(=O)c3ccc4c(c3)CCC4)CC2)C(=O)C12CCCCC2	-0.427%	1030 nM [rising, full curve]	
CS(=O)(=O)N(CCc1ccccc1)CC(=O)NCc1ccccc1	-0.577%	29100 nM [falling, single point]	
O=C(O)c1cc(NC(=O)c2cccc(C(=O)Nc3cc(C(=O)O)cc(C(=O)O)c3)c2)cc(C(=O)O)c1	27.2%	1460 nM [falling, partial curve]	
CCC(C)(C)NC(=O)C1CCN(c2nc(OC)nc(OC)n2)CC1	-5.06%	6510 nM [falling, single point]	6510 nM [falling, single point]
CSc1nc(N2CCOCC2)c2c3c(sc2n1)CCCC3	-4.11%	146 nM [falling, full curve, poor fit]	
CCN1CCCC1CNC(=O)CCNC(=O)c1cc(OC)c(OC)c(OC)c1 (stereo not drawn)	6.28%	651 nM [falling, full curve, poor fit]	1460 nM [falling, full curve]
Cc1ccc2cc(C#N)c(NCCNC(=S)NCCCN(C)C)nc2c1C	16.8%	3260 nM [falling, single point]	

Some values from above:
Entry for CCC(=O)N1CCc2cc(S(=O)(=O)N3CCN(c4ccccc4)CC3)ccc21 under cell number change: -4.82%
Entry for CCN1CCCC1CNC(=O)CCNC(=O)c1cc(OC)c(OC)c(OC)c1 (stereo not drawn) under AC50 [2]: 1460 nM [falling, full curve]
